The other results are listed elsewhere or left out. Shown are side measurements of this screen, not its main read-out; they come without a call. The list favours compounds with an active or inconclusive main result. Potencies come from curve fits of mixed quality, noted in brackets.

The values below come from PubChem BioAssay AID445 (National Center for Advancing Translational Sciences (NCATS), 2006).

The experiment is described as follows: IkB Signaling. Particulars: ABC-DLBCL IkBa-CBG/CBR dual luciferase ratio (green luciferase fused to IkBa over red control in OCI-Ly3 lymphoma cells), 4 h; measured here: control luc red channel unless noted. The procedure, abridged:
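Luminescence ratio of IκBα-fused green versus native red beetle luciferase in OCI-Ly3 cells, 4 h post-doxycycline with compound; red signal alone, scaled from basal (0%) to zero light (-100%), flagged nonspecific or cytotoxic effects.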
The AC50 is the concentration giving half of the maximal activity seen. With `Cc1ccc(NC(=O)c2cccc3c(=O)c4c([nH]c23)CCCC4)c(C)c1`, the AC50 was 39.8 µM [falling, single point].

As for `O=C(Nc1ccc2c(c1)OCO2)[C@@H]1[C@@H]2C(=O)N(C3CCCCC3)C(=O)[C@@H]2C2c3ccccc3C=CN21` (some centres undefined), the AC50 is 10 µM [falling, partial curve].

Consider `CCOC(=O)c1sc2ccccc2c1S(=O)(=O)Nc1ccc(OC)c(Cl)c1`, for which the AC50 was 31.6 µM [falling, single point].

Turning to `CCOc1ccc(NC(=O)Nc2nnc(N3CCCCC3C)s2)cc1` (centres undefined), the half-maximal activity concentration (AC50) was 31.6 µM [falling, single point].

In the case of `Cc1ccc(NC(=O)Nc2nnc(SCC(=O)N(C(C)C)C(C)C)s2)cc1`, the concentration at half-maximal activity (AC50) is 25.1 µM [falling, partial curve].

As for `CCc1ccc2oc(-c3ccc(C)c(NC(=O)c4cc([N+](=O)[O-])ccc4N4CCOCC4)c3)nc2c1`, the concentration at half-maximal activity (AC50) was 3.16 µM [falling, full curve].

For `Clc1ccc(CSc2ccc(-c3cccs3)nn2)cc1`, the AC50 is 2 µM [rising, full curve].

For the molecule `COc1ccc(C(=O)NCCSc2c[nH]c3ccccc23)cc1OC`, the AC50 was 20 µM [falling, partial curve].

As to `CCC(CC)C(=O)N1c2ccccc2C(C)(c2ccccc2)CC1(C)C` (centres undefined), the AC50 was 12.6 µM [falling, partial curve].

As for `COC(=O)CN1C(=O)CSc2ccc(S(=O)(=O)Nc3ccc(F)c(Cl)c3)cc21`, the half-maximal activity concentration (AC50) is 15.8 µM [falling, partial curve].

`CC(=O)N1CCc2c(sc3c2c(=O)n(Cc2ccccc2)c(=O)n3Cc2ccc(Cl)cc2)C1`: the AC50 was 39.8 µM [falling, single point].

In the case of `CSCCC(NS(=O)(=O)c1ccc2c(c1)oc(=O)n2C)C(=O)Nc1ccc(F)c(Cl)c1` (centres undefined), the AC50 was 15.8 µM [falling, partial curve].

As to `COc1ccc(NC(=O)c2c(NCc3cccc(F)c3)sc3c2CCC3)c(OC)c1`, the half-maximal activity concentration (AC50) was 39.8 µM [falling, single point].

With `CCCCOc1ccc(C2=NC(c3cccs3)=Nc3ccc(OC)cc3N2)cc1`, the AC50 is 15.8 µM [falling, single point].

On to `COc1ccc(OC)c(CNC(=O)c2c(C)oc3ncn(CC(C)C)c(=O)c23)c1`, for which the AC50 was 12.6 µM [falling, partial curve, poor fit].

With `Cc1nn(C)c(C)c1S(=O)(=O)N(CC(=O)NCCc1ccc(Cl)cc1)c1ccc(C(C)C)cc1`, the AC50 is 10 µM [falling, partial curve].

Regarding `COc1cccc2sc(N(Cc3cccnc3)C(=O)c3ccco3)nc12`, the half-maximal activity concentration (AC50) was 20 µM [falling, partial curve].

As to `COc1ccc2cccc(N3CCN(CCNC(=O)c4ccc(F)cc4)CC3)c2c1`, the AC50 is 15.8 µM [falling, partial curve].

In the case of `CC1Cc2ccccc2N1C(=O)C1CCCN(S(=O)(=O)c2cccc3nsnc23)C1` (centres undefined), the AC50 was 39.8 µM [falling, single point].

Turning to `Cc1ccccc1C(=O)Nc1ccc(S(=O)(=O)N2CCC(c3nc4ccccc4s3)CC2)cc1`, the AC50 is 20 µM [falling, single point].

On to `CCC(Oc1ccccc1)C(=O)Nc1cccc(OCc2cc(=O)n3cccc(C)c3n2)c1` (centres undefined), for which the AC50 is 7.94 µM [falling, full curve].

As for `CCOC(=O)c1c(C)oc(NC(=O)COc2ccc(Cl)cc2C)c1C#N`, the AC50 was 25.1 µM [falling, partial curve].

For the molecule `CCOC(=O)c1ccc2c(c1)nc(SC/C(O)=C(\C#N)c1nc3ccccc3[nH]1)n2CC`, the concentration at half-maximal activity (AC50) is 10 µM [falling, partial curve].

`COc1cccc(NC(=O)CSc2nc(C)c(Cc3ccccc3)c(=O)[nH]2)c1`: the AC50 is 20 µM [falling, partial curve].

With `Cc1nc2c(c(=O)n1Cc1ccco1)c1nc3ccccc3nc1n2Cc1ccccc1`, the AC50 was 12.6 µM [falling, partial curve].

In the case of `Cc1cccc(-c2nc3c4c(-c5ccccc5)c(-c5ccccc5)oc4ncn3n2)c1`, the AC50 is 25.1 µM [falling, partial curve, poor fit].

As for `CC(C)CN(C(=O)COC(=O)c1ccc2c(c1)NC(=O)CS2)C1CCS(=O)(=O)C1` (centres undefined), the half-maximal activity concentration (AC50) is 25.1 µM [falling, partial curve].

Turning to `CC(=O)N1c2ccc(S(=O)(=O)N3CCC(C(=O)Nc4cccc(Cl)c4C)CC3)cc2CC1C` (centres undefined), the AC50 was 25.1 µM [falling, partial curve].

`CCOC(=O)C1CCN(S(=O)(=O)c2cccc(-c3cn4cccc(C)c4n3)c2)CC1`: the half-maximal activity concentration (AC50) was 10 µM [falling, partial curve].

As to `CN(C)c1ccc(CNC(=O)Cc2ccc(NC(=O)N3CCCCc4ccccc43)cc2)cc1`, the half-maximal activity concentration (AC50) was 12.6 µM [falling, partial curve].

As to `CCOC(=O)c1ccc(NC(=O)CCCc2nc(-c3cc(OC)c(OC)c(OC)c3)no2)cc1`, the AC50 was 31.6 µM [falling, single point].

As for `CCOc1ccc(S(=O)(=O)N(CC(=O)Nc2ccc(OC)cc2OC)c2ccccc2)cc1`, the AC50 was 31.6 µM [falling, partial curve, poor fit].

`Cc1nn(CCCC(=O)NCc2ccccc2Br)c(=O)c2c1sc1ccccc12`: the AC50 was 12.6 µM [falling, partial curve].

Take `CC(C)C(c1nnnn1Cc1ccccc1)N(Cc1ccco1)Cc1cccs1` (centres undefined): the concentration at half-maximal activity (AC50) was 10 µM [falling, partial curve].

`O=C(NCc1ccccc1F)C1CCCN(C(=O)N2CCOc3ccccc32)C1` (centres undefined): the AC50 was 15.8 µM [falling, single point].

With `COc1ccc(-c2nc3ccccc3o2)cc1NC(=O)COc1ccc(C)c(C)c1`, the concentration at half-maximal activity (AC50) is 3.16 µM [rising, partial curve].

On to `O=C(CSc1nnc(CN2CCOCC2)n1-c1ccc(Cl)cc1)Nc1cc(Cl)ccc1O`, for which the AC50 is 39.8 µM [falling, single point].

On to `CCOc1ccc(C(=O)Nc2cccc(C(=O)OCc3cc(=O)n4cc(C)sc4n3)c2)cc1`, for which the AC50 is 0.126 µM [falling, full curve].

`COc1ccc(S(=O)(=O)N(CC(=O)N2CCc3ccccc3C2)c2ccc(C)cc2)cc1`: the concentration at half-maximal activity (AC50) is 7.94 µM [falling, partial curve].
